According to patent publication US20030232009A1:
No constants are given. Whether binding was seen depends on the method and setting. Some results given as binding are weak or reduced against the parent protein; the word gives no strength.

B1: AB-CD45RB-XG2-487 (antibody, human IgG2, V domains shown)
VH: QVQLVESGGGVVQPGRSLRVSCEASGFTFSNYGMHWVRQAPGKGLEWVAVIWYDGSKKFYADSVKGRFTISRDNSQNTLSLQMSSLRAEDTAVYYCARGGGDFDFWGQGTLVTVSS
VL: KIVMTQSPATLSVSPGERATLSCRASQSVSGNYLAWYQQRPGQAPRLLIYGASTRATGIPARFSGSGSGTEFTLTISSLQSEDFAVYYCQQYGKWPPLTFGGGTKVEIK
B2: AB-CD45RB-XG2-648 (antibody, human IgG2, V domains shown)
VH: QVQLVESGGGLVKPGGSLRLSCAASGFTFNVYYMNWIRQAPGKGLEWVSYISTSSSAIYYADSVKGRFTISRDNAKNSLYLQMNSLRAEDTAVYYCARRTGSTTVFDYWGQGTLVTVSS
VL: EIVLTQSPATLSVSPGERATLSCRASQSINNNLAWYQQKPGQAPRLLIYGASTRATGIPAKFSGSGSGTEFTLTISSLQSENFAVYYCQQYNKWPLTFGGGTKVEIK

How the values were obtained:
[1] = molecular target: T1, Human 46 mer peptide (RB exon of human CD45) (human); assay: recombinant antibody on peptide
T1 sequence (peptide): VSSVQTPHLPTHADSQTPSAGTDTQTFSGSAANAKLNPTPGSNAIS

[2] = molecular target: Human CD45RB (format not stated) (human) (UniProt P08575); assay: screening of harvest 8
[3] = molecular target: T1, Human 46 mer peptide (RB exon of human CD45) (human); assay: peptide binding
[4] = molecular target: chimeric CD45RB (full length human CD45RB with the macaque RB exon) transiently expressed in CHO cells (human; macaque) (UniProt P08575); assay: transiently transfected CHO cells

| Binder | binding [1] | binding [2] | binding [3] | binding [4] |
| --- | --- | --- | --- | --- |
| B1 | binds | binds | binds |  |
| B2 |  |  |  | binds |
